No constants are given. Whether binding was seen depends on the method and setting. In cells and extracts the contact can be indirect. A yes stands for co-enrichment or nearness to the bait. Other partners may have been found.
Biological target: T1, Signal-induced proliferation-associated 1 (SIPA1) (human (endogenous in BT549)) (UniProt Q96FS4)
T1 sequence: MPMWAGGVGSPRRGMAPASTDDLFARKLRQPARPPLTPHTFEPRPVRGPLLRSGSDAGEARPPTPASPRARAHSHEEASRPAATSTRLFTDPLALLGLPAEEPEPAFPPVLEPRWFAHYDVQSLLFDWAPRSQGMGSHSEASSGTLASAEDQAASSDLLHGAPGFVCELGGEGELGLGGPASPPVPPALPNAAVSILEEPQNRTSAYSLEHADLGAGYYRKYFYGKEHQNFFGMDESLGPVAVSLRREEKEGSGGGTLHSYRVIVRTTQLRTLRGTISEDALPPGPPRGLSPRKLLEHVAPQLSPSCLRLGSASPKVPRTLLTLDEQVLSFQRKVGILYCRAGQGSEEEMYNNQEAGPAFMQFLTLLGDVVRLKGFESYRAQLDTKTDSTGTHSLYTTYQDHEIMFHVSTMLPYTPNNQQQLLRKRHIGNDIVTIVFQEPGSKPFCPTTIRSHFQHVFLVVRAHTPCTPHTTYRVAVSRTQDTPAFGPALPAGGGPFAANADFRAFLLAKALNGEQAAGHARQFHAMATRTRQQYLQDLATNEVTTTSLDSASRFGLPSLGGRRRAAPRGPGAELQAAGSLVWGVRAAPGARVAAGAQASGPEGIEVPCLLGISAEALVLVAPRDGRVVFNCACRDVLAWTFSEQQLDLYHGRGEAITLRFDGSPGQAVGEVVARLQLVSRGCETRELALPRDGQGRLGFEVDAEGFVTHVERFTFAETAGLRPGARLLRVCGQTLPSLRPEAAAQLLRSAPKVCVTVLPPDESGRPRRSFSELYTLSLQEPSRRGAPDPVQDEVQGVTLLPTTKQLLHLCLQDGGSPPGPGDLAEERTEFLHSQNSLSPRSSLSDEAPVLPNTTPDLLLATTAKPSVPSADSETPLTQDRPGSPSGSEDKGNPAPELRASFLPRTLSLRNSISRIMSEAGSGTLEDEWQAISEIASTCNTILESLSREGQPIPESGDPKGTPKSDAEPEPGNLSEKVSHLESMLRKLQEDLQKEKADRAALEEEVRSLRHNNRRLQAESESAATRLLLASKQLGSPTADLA
Assay: affinity purification with mass spectrometry; co-immunoprecipitation of SIPA1 and proteomics; hits listed in Table S1; cells not given

The chains behind the UniProt entries cited, without tags or fusion partners.
UniProt Q14974: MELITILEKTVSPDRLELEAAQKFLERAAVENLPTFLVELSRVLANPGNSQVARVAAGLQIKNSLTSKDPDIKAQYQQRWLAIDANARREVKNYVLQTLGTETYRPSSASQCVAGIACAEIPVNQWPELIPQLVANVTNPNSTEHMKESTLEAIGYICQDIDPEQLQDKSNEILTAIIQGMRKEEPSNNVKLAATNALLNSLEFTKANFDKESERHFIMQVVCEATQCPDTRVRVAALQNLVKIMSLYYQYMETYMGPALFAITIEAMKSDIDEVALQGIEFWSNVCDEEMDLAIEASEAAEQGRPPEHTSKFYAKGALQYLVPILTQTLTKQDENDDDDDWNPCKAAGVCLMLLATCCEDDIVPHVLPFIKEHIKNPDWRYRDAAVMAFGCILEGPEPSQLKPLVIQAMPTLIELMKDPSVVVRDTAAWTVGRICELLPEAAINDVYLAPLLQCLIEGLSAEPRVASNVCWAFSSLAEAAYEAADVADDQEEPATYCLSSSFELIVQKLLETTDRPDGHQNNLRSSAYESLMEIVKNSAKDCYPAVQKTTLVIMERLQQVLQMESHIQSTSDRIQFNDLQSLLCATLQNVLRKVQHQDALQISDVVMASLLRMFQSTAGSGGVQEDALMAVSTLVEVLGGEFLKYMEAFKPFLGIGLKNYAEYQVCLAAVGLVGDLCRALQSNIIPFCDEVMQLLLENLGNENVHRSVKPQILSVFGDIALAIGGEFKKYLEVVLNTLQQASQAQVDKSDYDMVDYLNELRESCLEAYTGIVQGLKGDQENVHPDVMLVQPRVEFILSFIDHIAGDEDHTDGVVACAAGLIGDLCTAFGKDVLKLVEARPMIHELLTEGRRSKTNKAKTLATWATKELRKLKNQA

- binding: binds
Substance: importin β1 (from UniProt Q14974 1-876)

— paper PMC10457189
